At least one compound was matched to its structure with a doubt left.
System: Foreskin fibroblasts
Test: H2O2-induced accelerated senescence in foreskin fibroblasts, SA-β-Gal staining
Type: cell-based
Settings: senescence induced by H2O2 for 48 hours, 10% cord blood plasma and/or 3 uMol Pterostilbene vs control media (DMEM), FIG. 1

COc1cc(/C=C/c2ccc(O)cc2)cc(OC)c1 [pterostilbene]
Senescence marker Beta Galactosidase (SA-β-Gal-stained cells counted): did not exhibit a protective effect
